Values quoted from earlier work in US6664083B2, “Methods for racemizing N-acylamino acids and producing optically active amino acids” (Daichel Chemical Industries, Ltd., priority 2000, dated 2003).
Some of these results come from one statement about several compounds together.

Biological target: T1, NAAR derived from Amycolatopsis sp. TS-1-60 (Amycolatopsis sp, UniProt Q44244)
T1 sequence (Q44244 1-368): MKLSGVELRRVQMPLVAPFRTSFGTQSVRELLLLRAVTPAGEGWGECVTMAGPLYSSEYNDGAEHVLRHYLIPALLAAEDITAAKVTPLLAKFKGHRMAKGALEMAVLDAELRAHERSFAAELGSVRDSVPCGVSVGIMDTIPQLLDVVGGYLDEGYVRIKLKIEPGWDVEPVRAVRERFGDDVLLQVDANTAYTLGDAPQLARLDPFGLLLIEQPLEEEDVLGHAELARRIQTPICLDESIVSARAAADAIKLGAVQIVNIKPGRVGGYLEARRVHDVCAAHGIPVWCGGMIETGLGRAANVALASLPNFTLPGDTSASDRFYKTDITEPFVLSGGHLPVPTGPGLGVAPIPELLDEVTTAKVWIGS
Details: activity on N-acylmethionine taken as 100; cited from earlier work

## N-acylalanine
  activity of NAAR derived from Amycolatopsis sp. TS-1-60: less than 50

## N-acylaspartic acid
  activity of NAAR derived from Amycolatopsis sp. TS-1-60: less than 50

## N-acylleucine
  activity of NAAR derived from Amycolatopsis sp. TS-1-60: less than 50

## N-acylphenylalanine
  activity of NAAR derived from Amycolatopsis sp. TS-1-60: ≥ 50

## N-acyltryptophan
  activity of NAAR derived from Amycolatopsis sp. TS-1-60: less than 50

## N-acylvaline
  activity of NAAR derived from Amycolatopsis sp. TS-1-60: ≥ 50
